Article PMC7195429

Chains of the proteins cited; added tags and fusions are not shown. Lines headed by an entry give the natural chain unless they say otherwise; changes in a name come on top.
UniProt Q45GQ3: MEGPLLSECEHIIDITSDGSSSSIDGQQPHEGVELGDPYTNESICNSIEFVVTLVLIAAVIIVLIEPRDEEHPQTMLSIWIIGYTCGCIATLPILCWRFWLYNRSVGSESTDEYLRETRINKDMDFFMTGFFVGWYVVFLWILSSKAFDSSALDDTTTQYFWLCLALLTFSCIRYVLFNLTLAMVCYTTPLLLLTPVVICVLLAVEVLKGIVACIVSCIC

Key:
[1] = target: T1, nEYFP-YIP4a (Arabidopsis thaliana) (UniProt O64614); assay: split reporter; BiFC with cEYFP-SYAC1 and nEYFP fusions mixed 1:1, transiently expressed in Arabidopsis root suspension culture protoplasts; confocal microscopy
T1 sequence: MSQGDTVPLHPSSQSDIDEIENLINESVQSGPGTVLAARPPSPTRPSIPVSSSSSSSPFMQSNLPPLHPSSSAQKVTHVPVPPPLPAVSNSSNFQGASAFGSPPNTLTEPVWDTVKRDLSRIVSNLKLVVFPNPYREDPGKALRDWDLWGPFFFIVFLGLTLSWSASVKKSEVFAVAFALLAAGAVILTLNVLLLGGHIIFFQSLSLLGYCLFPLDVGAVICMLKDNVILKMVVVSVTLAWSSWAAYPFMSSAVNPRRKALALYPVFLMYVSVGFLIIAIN

[2] = target: T2, nEYFP-KCR1 (Arabidopsis thaliana) (UniProt Q8L9C4); assay: as above
T2 sequence: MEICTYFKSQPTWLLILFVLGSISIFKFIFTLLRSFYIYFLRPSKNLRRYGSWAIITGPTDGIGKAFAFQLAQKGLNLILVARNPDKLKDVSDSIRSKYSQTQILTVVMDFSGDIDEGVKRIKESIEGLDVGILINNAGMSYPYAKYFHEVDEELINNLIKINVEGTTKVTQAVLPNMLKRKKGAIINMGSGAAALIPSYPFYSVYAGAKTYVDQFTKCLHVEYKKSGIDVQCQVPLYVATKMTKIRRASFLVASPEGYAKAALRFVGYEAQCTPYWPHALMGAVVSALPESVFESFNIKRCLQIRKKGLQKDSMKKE

[3] = target: T3, nEYFP-YIP4b (Arabidopsis thaliana) (UniProt Q93VH1); assay: as above
T3 sequence: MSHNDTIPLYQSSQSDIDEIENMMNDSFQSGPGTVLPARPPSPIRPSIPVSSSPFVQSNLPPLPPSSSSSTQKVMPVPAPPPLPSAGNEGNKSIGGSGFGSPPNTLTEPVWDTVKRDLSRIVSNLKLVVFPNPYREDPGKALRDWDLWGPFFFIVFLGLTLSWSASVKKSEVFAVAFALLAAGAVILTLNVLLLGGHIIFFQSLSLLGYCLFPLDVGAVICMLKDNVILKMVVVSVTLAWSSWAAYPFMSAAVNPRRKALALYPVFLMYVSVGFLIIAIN

[4] = target: T4, nEYFP-ECH (Arabidopsis thaliana) (UniProt Q8LEK2); assay: as above
T4 sequence: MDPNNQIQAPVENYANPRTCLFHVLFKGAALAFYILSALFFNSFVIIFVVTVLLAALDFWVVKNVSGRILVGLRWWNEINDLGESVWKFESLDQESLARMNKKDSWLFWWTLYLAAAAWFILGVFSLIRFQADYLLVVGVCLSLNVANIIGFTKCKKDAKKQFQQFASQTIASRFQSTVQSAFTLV

[5] = target: T5, nEYFP-PHB4 (Arabidopsis thaliana) (UniProt Q9LK25); assay: as above
T5 sequence: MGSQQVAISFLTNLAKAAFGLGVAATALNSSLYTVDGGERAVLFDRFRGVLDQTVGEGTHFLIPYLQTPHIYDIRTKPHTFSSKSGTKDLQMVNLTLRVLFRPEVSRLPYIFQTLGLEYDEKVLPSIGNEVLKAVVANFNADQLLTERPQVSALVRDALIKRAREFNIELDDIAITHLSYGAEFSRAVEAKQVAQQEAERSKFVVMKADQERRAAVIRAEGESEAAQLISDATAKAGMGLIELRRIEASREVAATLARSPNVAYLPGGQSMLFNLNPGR

[6] = target: T6, YIP4a-MYC (Arabidopsis thaliana) (UniProt O64614); assay: co-IP; co-transfected Arabidopsis root cell culture protoplasts; lysate with 150 mM NaCl; anti-GFP or anti-Myc immunoprecipitation on Protein G magnetic beads, 4 °C; blot with anti-HA
T6 sequence: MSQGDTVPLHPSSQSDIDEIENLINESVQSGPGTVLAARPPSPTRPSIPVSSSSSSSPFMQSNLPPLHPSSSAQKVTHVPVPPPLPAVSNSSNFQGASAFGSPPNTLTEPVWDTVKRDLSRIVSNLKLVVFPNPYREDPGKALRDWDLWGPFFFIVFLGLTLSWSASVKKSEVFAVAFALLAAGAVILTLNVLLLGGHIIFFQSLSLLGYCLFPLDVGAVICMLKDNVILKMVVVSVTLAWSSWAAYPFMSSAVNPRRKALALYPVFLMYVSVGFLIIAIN

[7] = target: T7, BD-ECH (Arabidopsis thaliana) (UniProt Q8LEK2); assay: two-hybrid; GAL4-based yeast two-hybrid, strain PJ69-4A; AD-SYAC1 (prey) with BD fusions (bait); SD -Leu/-Trp/-His with 3-amino-1,2,4-triazole
T7 sequence: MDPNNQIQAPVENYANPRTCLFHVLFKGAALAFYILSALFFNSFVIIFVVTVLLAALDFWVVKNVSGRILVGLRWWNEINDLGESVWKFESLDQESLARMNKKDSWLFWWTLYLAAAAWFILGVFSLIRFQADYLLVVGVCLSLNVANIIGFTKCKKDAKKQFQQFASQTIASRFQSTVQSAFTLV

[8] = target: T8, BD-YIP4a (Arabidopsis thaliana) (UniProt O64614); assay: as above
T8 sequence: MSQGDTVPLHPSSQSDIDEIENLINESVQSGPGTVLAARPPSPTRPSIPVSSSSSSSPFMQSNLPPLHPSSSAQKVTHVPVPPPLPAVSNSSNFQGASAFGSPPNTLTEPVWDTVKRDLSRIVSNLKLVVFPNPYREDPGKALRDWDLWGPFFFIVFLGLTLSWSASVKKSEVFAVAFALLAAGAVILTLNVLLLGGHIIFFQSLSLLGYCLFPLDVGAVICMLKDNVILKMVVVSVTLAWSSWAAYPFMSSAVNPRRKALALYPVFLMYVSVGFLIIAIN

[9] = target: T9, BD-KCR1 (Arabidopsis thaliana) (UniProt Q8L9C4); assay: as above
T9 sequence: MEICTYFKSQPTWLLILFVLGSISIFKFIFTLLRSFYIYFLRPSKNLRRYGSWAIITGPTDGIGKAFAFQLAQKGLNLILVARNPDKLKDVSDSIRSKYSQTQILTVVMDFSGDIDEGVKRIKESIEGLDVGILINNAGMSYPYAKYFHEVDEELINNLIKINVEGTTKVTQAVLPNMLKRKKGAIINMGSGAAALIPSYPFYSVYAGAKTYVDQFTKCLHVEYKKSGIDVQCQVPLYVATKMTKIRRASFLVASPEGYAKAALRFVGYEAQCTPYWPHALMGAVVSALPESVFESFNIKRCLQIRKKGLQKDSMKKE

[10] = target: T10, BD-YIP4b (Arabidopsis thaliana) (UniProt Q93VH1); assay: as above
T10 sequence: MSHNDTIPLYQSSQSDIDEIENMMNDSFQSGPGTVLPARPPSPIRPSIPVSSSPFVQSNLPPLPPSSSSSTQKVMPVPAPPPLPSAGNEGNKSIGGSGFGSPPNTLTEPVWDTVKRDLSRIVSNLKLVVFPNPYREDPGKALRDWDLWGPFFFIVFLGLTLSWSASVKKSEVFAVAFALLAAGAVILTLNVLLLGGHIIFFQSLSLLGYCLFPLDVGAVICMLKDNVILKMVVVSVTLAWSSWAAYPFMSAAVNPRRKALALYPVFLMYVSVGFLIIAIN

[11] = target: SYAC1-GFP (Arabidopsis thaliana); assay: co-IP; co-transfected Arabidopsis root cell culture protoplasts; lysate with 150 mM NaCl; anti-GFP or anti-Myc immunoprecipitation on Protein G magnetic beads, 4 °C; blot with anti-HA

Molecule: AD-SYAC1 (from UniProt Q45GQ3)
binding [7]: binds | binding [8]: binds | binding [9]: binds weakly | binding [10]: binds

B1: ECH-HA (protein, UniProt Q8LEK2 1-186)
chain: MDPNNQIQAPVENYANPRTCLFHVLFKGAALAFYILSALFFNSFVIIFVVTVLLAALDFWVVKNVSGRILVGLRWWNEINDLGESVWKFESLDQESLARMNKKDSWLFWWTLYLAAAAWFILGVFSLIRFQADYLLVVGVCLSLNVANIIGFTKCKKDAKKQFQQFASQTIASRFQSTVQSAFTLV
binding [11]: binds

Second part, the molecule after the results:

binding [1]: binds | binding [2]: no binding | binding [3]: binds | binding [4]: binds | binding [5]: no binding
Molecule: cEYFP-SYAC1 (Arabidopsis thaliana)

binding [6]: binds
Molecule: SYAC1-HA (Arabidopsis thaliana)

These are yes or no findings as the source states them, for the method shown. For some assays here: Binding calls can cover weak binding; strength is not graded here. For some assays here: Tags and fused reporters may be left off the sequences shown. For some assays here: In cells and extracts the contact can be indirect. Each block holds one molecule with its values, some of them ahead of it.
